The values that follow come from publication PMC10926635, “Membrane-associated RING-CH 7 inhibits stem-like capacities of bladder cancer cells by interacting with nucleotide-binding oligomerization domain containing 1” (Cell & Bioscience, 2024).

Chains of the proteins cited; added tags and fusions are not shown.
UniProt Q9HC29: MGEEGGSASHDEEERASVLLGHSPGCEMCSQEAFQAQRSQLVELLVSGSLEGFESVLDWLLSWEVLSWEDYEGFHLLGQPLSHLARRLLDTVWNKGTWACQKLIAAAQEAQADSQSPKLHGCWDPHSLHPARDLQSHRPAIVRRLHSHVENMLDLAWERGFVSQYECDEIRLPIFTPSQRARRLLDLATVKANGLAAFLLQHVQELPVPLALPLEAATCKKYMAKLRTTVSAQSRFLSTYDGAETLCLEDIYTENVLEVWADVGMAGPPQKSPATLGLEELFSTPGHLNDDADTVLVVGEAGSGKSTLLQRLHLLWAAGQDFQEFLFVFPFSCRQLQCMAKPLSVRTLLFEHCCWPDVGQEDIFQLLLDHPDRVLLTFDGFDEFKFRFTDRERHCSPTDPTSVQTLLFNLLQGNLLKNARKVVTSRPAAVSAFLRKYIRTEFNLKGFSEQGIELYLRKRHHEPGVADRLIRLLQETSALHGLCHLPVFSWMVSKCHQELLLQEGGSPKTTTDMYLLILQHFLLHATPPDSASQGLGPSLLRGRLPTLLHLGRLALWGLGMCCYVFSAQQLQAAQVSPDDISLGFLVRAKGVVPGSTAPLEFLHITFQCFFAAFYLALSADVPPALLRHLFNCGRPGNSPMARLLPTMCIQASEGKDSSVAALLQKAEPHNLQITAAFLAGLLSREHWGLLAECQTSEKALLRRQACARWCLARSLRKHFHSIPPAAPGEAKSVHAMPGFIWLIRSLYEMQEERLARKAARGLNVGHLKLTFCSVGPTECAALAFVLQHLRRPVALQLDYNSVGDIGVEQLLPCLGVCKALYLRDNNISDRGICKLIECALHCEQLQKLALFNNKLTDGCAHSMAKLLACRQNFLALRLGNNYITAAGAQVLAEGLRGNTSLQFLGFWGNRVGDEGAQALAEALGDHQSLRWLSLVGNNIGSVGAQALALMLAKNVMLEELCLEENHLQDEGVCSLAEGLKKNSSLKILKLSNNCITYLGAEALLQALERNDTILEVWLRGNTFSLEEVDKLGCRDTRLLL

The target in test [1] is T1, Flag-MARCH7-WT (wild-type membrane-associated RING-CH 7) (UniProt Q9H992).
T1 sequence: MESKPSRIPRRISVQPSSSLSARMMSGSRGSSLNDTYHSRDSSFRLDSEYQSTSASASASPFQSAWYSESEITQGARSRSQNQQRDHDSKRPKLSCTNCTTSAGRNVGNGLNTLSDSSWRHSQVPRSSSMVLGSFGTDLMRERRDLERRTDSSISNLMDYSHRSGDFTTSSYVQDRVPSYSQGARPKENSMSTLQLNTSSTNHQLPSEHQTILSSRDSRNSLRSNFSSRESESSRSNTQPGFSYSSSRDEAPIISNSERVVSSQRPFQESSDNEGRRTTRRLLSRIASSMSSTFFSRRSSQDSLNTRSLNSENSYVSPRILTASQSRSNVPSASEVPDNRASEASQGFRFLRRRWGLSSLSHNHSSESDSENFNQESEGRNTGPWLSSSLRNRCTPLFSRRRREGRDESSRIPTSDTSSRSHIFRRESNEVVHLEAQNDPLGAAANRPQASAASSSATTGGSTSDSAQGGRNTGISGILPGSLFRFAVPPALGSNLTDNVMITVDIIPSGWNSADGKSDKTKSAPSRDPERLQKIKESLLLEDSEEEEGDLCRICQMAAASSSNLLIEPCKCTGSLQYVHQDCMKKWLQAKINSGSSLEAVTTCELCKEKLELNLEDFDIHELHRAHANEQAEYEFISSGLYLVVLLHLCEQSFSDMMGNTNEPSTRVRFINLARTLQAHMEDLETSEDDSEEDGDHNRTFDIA
Briefly: co-IP; HA-NOD1 and Flag-MARCH7 transfected into the cells; MG132 (10 uM) for 24 h; anti-HA or anti-FLAG with protein A- or G-agarose beads; IgG as negative control; immunoblotting. On the technique in general: Immunoblotting shows a protein as a band on a membrane.

The target in test [2] is T1, Flag-MARCH7-WT (wild-type membrane-associated RING-CH 7). The description is as above. The source holds these as a separate data set.

Where two headings read alike, the source gives them in different places. Results are given in words; binding and its absence hold for the method and conditions named. Binding seen in cells or lysates may run through a third protein. Some binding calls cover weakened binding; strength is not graded here. Sequences can lack the tags named with a protein.

On to NOD2 (from UniProt Q9HC29 1-1040), for which, in test [1], the binding entry is given as “no binding”.

B1: HA-NOD1 (nucleotide-binding oligomerization domain containing 1) (protein, UniProt Q9Y239-1 1-953)
chain: MEEQGHSEMEIIPSESHPHIQLLKSNRELLVTHIRNTQCLVDNLLKNDYFSAEDAEIVCACPTQPDKVRKILDLVQSKGEEVSEFFLYLLQQLADAYVDLRPWLLEIGFSPSLLTQSKVVVNTDPVSRYTQQLRHHLGRDSKFVLCYAQKEELLLEEIYMDTIMELVGFSNESLGSLNSLACLLDHTTGILNEQGETIFILGDAGVGKSMLLQRLQSLWATGRLDAGVKFFFHFRCRMFSCFKESDRLCLQDLLFKHYCYPERDPEEVFAFLLRFPHVALFTFDGLDELHSDLDLSRVPDSSCPWEPAHPLVLLANLLSGKLLKGASKLLTARTGIEVPRQFLRKKVLLRGFSPSHLRAYARRMFPERALQDRLLSQLEANPNLCSLCSVPLFCWIIFRCFQHFRAAFEGSPQLPDCTMTLTDVFLLVTEVHLNRMQPSSLVQRNTRSPVETLHAGRDTLCSLGQVAHRGMEKSLFVFTQEEVQASGLQERDMQLGFLRALPELGPGGDQQSYEFFHLTLQAFFTAFFLVLDDRVGTQELLRFFQEWMPPAGAATTSCYPPFLPFQCLQGSGPAREDLFKNKDHFQFTNLFLCGLLSKAKQKLLRHLVPAAALRRKRKALWAHLFSSLRGYLKSLPRVQVESFNQVQAMPTFIWMLRCIYETQSQKVGQLAARGICANYLKLTYCNACSADCSALSFVLHHFPKRLALDLDNNNLNDYGVRELQPCFSRLTVLRLSVNQITDGGVKVLSEELTKYKIVTYLGLYNNQITDVGARYVTKILDECKGLTHLKLGKNKITSEGGKYLALAVKNSKSISEVGMWGNQVGDEGAKAFAEALRNHPSLTTLSLASNGISTEGGKSLARALQQNTSLEILWLTQNELNDEVAESLAEMLKVNQTLKHLWLIQNQITAKGTAQLADALQSNTGITEICLNGNLIKPEEAKVYEDEKRIICF
Take B1: the binding entry in test [2] was “binds”.
